This is an account of results in PubChem BioAssay AID2685 (National Center for Advancing Translational Sciences (NCATS), 2010).

Usually AC50 stands for the concentration at which the activity in the assay is half-maximal.

A short description of the assay: qHTS Assay for Lipid Storage Modulators in Drosophila S3 Cells.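 On cell number change: cells counted by Cell Tracker Red CMTPX staining in the red channel.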 Particulars: BODIPY lipid droplet fluorescence, 18-24 h; for cell number change: measured here: cell count max response, cells fed with added oleic acid. The gist of the method: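 Laser-scanning cytometry quantifies lipid droplet accumulation (500–530 nm total intensity; droplet/cell object ratio) in oleic acid-fed (400 uM added) Drosophila S3 cells treated with a concentration series. 20 uM Triacsin C defined 100% inhibition.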
A general note: Quantitative high-throughput screening tests each substance at several concentrations.

[1] abbreviates: measured here: lipid fluorescence (Fed channel) AC50, cells fed with added oleic acid.
Setting [2] is: measured here: cell number channel AC50, cells fed with added oleic acid.

Structures are written as SMILES. This is one part of the list. Further columns of the screen follow, without active or inactive calls. Compounds called inactive in the main read-out are mostly missing here. Words in brackets tell the shape of the fitted curve; partial curves, single points and poor fits give uncertain potencies.

For `NC(=O)c1cc(S(=O)(=O)NCCc2ccc(S(N)(=O)=O)cc2)cs1`, the cell number change was found to be 9.85%. Besides, under setting [1], the AC50 is 6.51 µM [rising, full curve, poor fit].

For the compound `N/C(=N/OC(=O)c1ccccc1Cl)c1ncc([N+](=O)[O-])s1`, the cell number change was -32.8%. Moreover, the AC50 under setting [2] was 29.1 µM [falling, single point].

With `CN(C1(C)CCS(=O)(=O)C1)S(=O)(=O)c1ccc2ccccc2c1` (centres undefined), the cell number change is -0.98%. Moreover, the AC50 under setting [2] is 0.082 µM [falling, full curve, poor fit].

Turning to `Cc1ccc(C(=O)CSc2nnc(CNc3nc(-c4ccccc4)cs3)n2C)cc1`, the cell number change was -7.13%. For the same compound, the AC50 under setting [1] was 6.51 µM [rising, partial curve].

`CC(/C=N/NC(=O)c1cnccn1)=C\c1ccco1`: the cell number change stood at 31.1%. For the same compound, the AC50 under setting [2] is 25.9 µM [rising, single point].

In the case of `C/C(CC(=O)NC1CCCCC1)=N\NC(=O)c1ccccn1`, the cell number change was -5.51%. Moreover, the AC50 under setting [2] was 0.231 µM [falling, full curve, poor fit]. The half-maximal activity concentration (AC50) under setting [1] is 0.092 µM [falling, full curve, poor fit].

In the case of `CC(C)(C)c1ccc(OCCN2CCCC2)cc1`, the cell number change is -2.91%. The half-maximal activity concentration (AC50) under setting [1] is 0.731 µM [falling, full curve].

For `NC(=O)C1CCN(C(=O)C2CCC(=O)N(C3CCCCCC3)C2)CC1` (centres undefined), the cell number change is 21.5%. Also, the concentration at half-maximal activity (AC50) under setting [1] was 14.6 µM [rising, partial curve, poor fit].

Take `COc1ccc(CCN(C)C2CCCN(C(=O)c3ccnn3C)C2)cc1OC` (centres undefined): the cell number change amounted to 1.72%.

With `Cn1nnnc1SCCNCc1ccccc1F`, the cell number change was -15.3%. Also, the AC50 under setting [1] is 0.103 µM [falling, full curve, poor fit].

As for `CCn1c(SCc2nc3ccccc3c(=O)[nH]2)nnc1-c1cccnc1`, the AC50 under setting [1] is 0.58 µM [rising, full curve].

As to `c1cnc2c(OCc3nc4ccccc4[nH]3)cccc2c1`, the AC50 by setting is: under setting [2], 0.58 µM [rising, single point]; under setting [1], 0.58 µM [rising, single point].

Consider `CN=c1scc(-c2ccc(OC)cc2)n1/N=C(\C)c1cccnc1`, for which the cell number change is -18.5%. Further, under setting [2], the AC50 was 0.58 µM [rising, partial curve, poor fit]. Further, the AC50 under setting [1] is 29.1 µM [falling, single point].

Turning to `O=c1ccc2cc(S(=O)(=O)NCc3ccccc3)ccc2[nH]1`, the cell number change is -14.7%.

For `CCCC(NC(=O)COc1cc2c(c3oc(=O)cc(C)c13)CCC(C)(C)O2)C(=O)O` (centres undefined), the cell number change was determined as 51.4%. Moreover, the AC50 under setting [2] is 16.4 µM [rising, partial curve].

On to `C=C1SC(Nc2c(C)cccc2C)=NC12CCCCC2`, for which the cell number change is -50.7%. For the same compound, the AC50 under setting [2] was 18.4 µM [falling, single point]. The AC50 under setting [1] was 20.6 µM [falling, single point].

`CN(CC(=O)Nc1ncn[nH]1)S(=O)(=O)c1ccc(Cl)cc1`: the cell number change was -7.5%.

For the compound `CSc1ccccc1-c1n[nH]c(=S)o1`, the cell number change is -19%. Under setting [2], the AC50 was 4.61 µM [rising, single point]. Besides, the concentration at half-maximal activity (AC50) under setting [1] is 6.51 µM [rising, single point].

As to `Cc1ccc2c(c1)C(O)(C1COC(C)(C)CC1=O)C(=O)N2C` (centres undefined), the cell number change is 4.4%. The AC50 under setting [1] is 6.51 µM [falling, single point].

`c1cc(CNCC2CCCO2)ccn1` (centres undefined): the cell number change is -34.7%. Moreover, the AC50 under setting [2] is 23.1 µM [falling, single point]. In addition, the AC50 under setting [1] was 11.6 µM [falling, partial curve].

As for `CCC(=O)Nc1nc(C)c(-c2csc(Nc3ccccn3)n2)s1`, the cell number change is -58.5%. Also, the AC50 under setting [2] is 29.1 µM [falling, single point].

As to `O=S(=O)(NCCc1ccccc1)c1ccc(Br)s1`, the cell number change is 51.1%. Moreover, the AC50 under setting [2] is 11.6 µM [rising, partial curve, poor fit]. For the same compound, under setting [1], the AC50 is 7.31 µM [rising, partial curve].

In the case of `Cc1ccc(CN2CCN(CC(=O)NCc3ccccc3)CC2)cc1`, the cell number change was 0.824%. The AC50 under setting [1] was 16.4 µM [rising, single point].

Take `c1ccc(CNc2ncnc3nc[nH]c23)cc1`: the cell number change is -2.51%.

`O=C(CCN1CCC(c2ccc(Cl)s2)=N1)c1ccc(Cl)s1`: the cell number change is -5.42%.

Regarding `Cc1cccc(NC(=O)/C(C#N)=C\c2cccnc2)c1`, the AC50 under setting [1] was 0.651 µM [falling, single point].

Take `O=C(NCCc1ccccc1)C1CCN(Cc2ccccc2F)CC1`: the cell number change is -3.06%. In addition, the AC50 under setting [2] is 0.00461 µM [falling, full curve, poor fit]. In addition, under setting [1], the AC50 is 6.51 µM [falling, single point].

Consider `CC1(C)CC(=O)C(C(C2=C(O)CC(C)(C)CC2=O)c2cccs2)C(=O)C1` (centres undefined), for which the cell number change is -23.9%. For the same compound, the AC50 under setting [2] is 4.11 µM [falling, full curve, poor fit]. In addition, under setting [1], the AC50 is 4.11 µM [falling, full curve, poor fit].

Take `Cc1ccc(S(=O)(=O)c2nc(C(C)(C)C)oc2N2CCOCC2)cc1`: the cell number change was -86.1%. Further, under setting [2], the half-maximal activity concentration (AC50) is 18.4 µM [falling, single point]. Moreover, the AC50 under setting [1] was 29.1 µM [falling, single point].

In the case of `COCCNc1cc(NCCOC)c([N+](=O)[O-])cc1[N+](=O)[O-]`, the cell number change was -2.9%.

Consider `CCCCN(C)C(=O)c1nc2ccccn2c1CN1CCC[C@H]1CO`, for which the cell number change was determined as 29.3%.

On to `COc1ccc(Cc2nc3ccc(C(=O)NCC(C)(C)OC)cc3o2)cc1`, for which the cell number change turned out to be 17.2%.

On to `COC(=O)Cn1cc([N+](=O)[O-])nc1C`, for which the cell number change amounted to 31.4%. Moreover, the AC50 under setting [2] is 1.46 µM [rising, full curve]. For the same compound, the AC50 under setting [1] is 0.731 µM [rising, full curve].

`Cc1ccc(NC(=O)Nc2ccccc2F)cc1S(=O)(=O)N1CCOCC1`: the cell number change was 23.1%. Besides, the AC50 under setting [1] was 23.1 µM [rising, single point].

As to `O=C(COc1cc(F)ccc1[N+](=O)[O-])N1N=C(c2cccs2)CC1c1ccco1` (centres undefined), the cell number change was -2.98%. Moreover, under setting [1], the AC50 was 6.51 µM [rising, partial curve, poor fit].

Consider `CC(C)c1nnc(NC(=O)C2c3ccccc3Oc3ccccc32)s1`, for which the cell number change came to 15.4%. Further, the AC50 under setting [1] was 29.1 µM [rising, single point].

In the case of `COCC(=O)OCC(=O)c1cc(C)n(-c2ccc(Br)cc2)c1C`, the AC50 under setting [1] is 20.6 µM [rising, single point].

In the case of `Cc1cccnc1NC(=O)CSc1nnc(Cc2ccccc2)o1`, the cell number change was -24.7%. Further, under setting [1], the AC50 was 2.59 µM [falling, full curve].

Regarding `Cc1ccc(S(=O)(=O)NNC(=O)CCC(=O)Nc2ccc(C)cc2C)cc1`, the cell number change was -77.2%. Under setting [2], the AC50 is 8.2 µM [falling, partial curve, poor fit]. For the same compound, the AC50 under setting [1] is 5.8 µM [falling, partial curve].

On to `CCC(=O)Nc1cccc(C(=O)/C=C/c2cc(Br)ccc2OC)c1`, for which the cell number change was -31.5%.

On to `O=CNCCCc1nc2ccccc2n1Cc1ccccc1`, for which the cell number change was -16.1%.

Regarding `COc1ccc(NC(=O)c2c(C(F)(F)F)nn(C)c2SCc2ccccc2Cl)cc1`, the cell number change was -2.88%. The AC50 under setting [1] was 16.4 µM [falling, partial curve, poor fit].

With `CCCCOC(=O)C(C#N)c1nc2ccccc2nc1N1CCN(Cc2ccc3c(c2)OCO3)CC1` (centres undefined), the cell number change amounted to 23.2%. The AC50 under setting [2] was 0.092 µM [rising, full curve, poor fit].

As to `Cc1ccc(CNC(=O)COc2cccc3c2OC(C)(C)C3)cc1`, the half-maximal activity concentration (AC50) under setting [1] is 3.26 µM [falling, single point].

Take `COc1ccc2c(c1)S/C(=C\C(=O)c1ccncc1)N2C`: the cell number change is -2.5%. For the same compound, the AC50 under setting [1] is 29.1 µM [falling, partial curve, poor fit].

In the case of `CC(C)NC(=O)CSc1ncccc1-c1nc2ccccc2[nH]1`, the cell number change was -28.2%. Besides, the half-maximal activity concentration (AC50) under setting [1] is 0.0517 µM [falling, full curve, poor fit].

Take `Cc1c(C(=O)Nc2ccccc2F)cnn1-c1ccccc1`: the concentration at half-maximal activity (AC50) under setting [1] was 0.58 µM [rising, single point].

On to `O=[N+]([O-])c1ccc(N2CCCCC2)c(-c2nn[nH]n2)c1`, for which the cell number change was -47.2%. For the same compound, the concentration at half-maximal activity (AC50) under setting [2] was 29.1 µM [falling, single point].

For the compound `O=C(COC(=O)c1cccc2c1C(=O)c1ccccc1C2=O)NC1CCCCC1`, the cell number change is -20%. Also, under setting [1], the AC50 was 20.6 µM [falling, single point].

As for `Cc1ccccc1S(=O)(=O)c1cc(C#N)c(=O)[nH]c1N`, the cell number change was -7.87%.

For the compound `Cc1cccc(NCC(=O)N/N=C/c2cccc(Br)c2)c1`, the cell number change was -38%. In addition, the AC50 under setting [2] is 14.6 µM [falling, single point]. Further, the AC50 under setting [1] was 29.1 µM [falling, single point].

With `O=C(CSc1nnc(-c2ccccc2)o1)N1CCCCC1`, the cell number change was 35.2%. The AC50 under setting [1] is 29.1 µM [rising, single point].

Regarding `CN(C)c1nc(OCCNC(=O)Nc2ccccc2)nc(N(C)C)n1`, the cell number change is -12.5%. For the same compound, under setting [1], the half-maximal activity concentration (AC50) was 1.03 µM [rising, partial curve, poor fit].

Consider `CCOC(=O)C1=C(C)C(c2cccc(Oc3ccccc3)c2)NC(=S)N1` (centres undefined), for which the cell number change worked out at 10.1%. Also, the AC50 under setting [1] is 3.66 µM [rising, partial curve].

With `COc1ccc(N=C2S/C(=C\c3cccs3)C(=O)N2CC(C)C)cc1`, the cell number change was determined as 32.4%. Moreover, the concentration at half-maximal activity (AC50) under setting [2] was 1.46 µM [rising, single point].

Turning to `CN(C1=C(NC(=O)c2ccc(Cl)cc2)C(=O)c2ccccc2C1=O)c1ccccc1`, the cell number change was -70.6%. The AC50 under setting [2] was 10.3 µM [falling, partial curve]. Further, the AC50 under setting [1] is 5.17 µM [falling, partial curve].

In the case of `COc1ccc2cc(C(=O)N3CCOCC3)sc(=O)c2c1OC`, the cell number change is -1.14%. Moreover, the AC50 under setting [1] is 2.06 µM [rising, partial curve, poor fit].

For the compound `CCCNC(=O)C(Cc1cccc(C#N)c1)NC(=O)c1cccc([N+](=O)[O-])c1` (centres undefined), the cell number change is -43.9%. The half-maximal activity concentration (AC50) under setting [2] was 29.1 µM [falling, single point].

On to `CCC1(c2ccccc2)NC(=O)N(CC(=O)Nc2ccccc2C(=O)NC2CCCC2)C1=O` (centres undefined), for which, under setting [1], the AC50 was 29.1 µM [rising, single point].

As for `S=c1[nH]nc(-c2ccccc2)n1C1C=CCCC1` (centres undefined), the cell number change is -12.6%. The AC50 under setting [1] is 29.1 µM [falling, single point].

`O=C(NCc1ccco1)C(c1ccccc1F)N(CC1CCCO1)C(=O)Cn1nnc2ccccc21` (centres undefined): the cell number change stood at 31%. Further, the AC50 under setting [2] was 8.2 µM [rising, single point]. Moreover, the AC50 under setting [1] is 25.9 µM [rising, single point].
